Source: patent publication US20240018255A1
Positions count from the first letter of the chain named. These are yes or no findings as the source states them, for the method shown. Some results given as binding are weak or reduced against the parent protein; the word gives no strength.

The chains behind the UniProt entries cited, without tags or fusion partners. Residues count along the entry.
UniProt P78324, residues 31-504: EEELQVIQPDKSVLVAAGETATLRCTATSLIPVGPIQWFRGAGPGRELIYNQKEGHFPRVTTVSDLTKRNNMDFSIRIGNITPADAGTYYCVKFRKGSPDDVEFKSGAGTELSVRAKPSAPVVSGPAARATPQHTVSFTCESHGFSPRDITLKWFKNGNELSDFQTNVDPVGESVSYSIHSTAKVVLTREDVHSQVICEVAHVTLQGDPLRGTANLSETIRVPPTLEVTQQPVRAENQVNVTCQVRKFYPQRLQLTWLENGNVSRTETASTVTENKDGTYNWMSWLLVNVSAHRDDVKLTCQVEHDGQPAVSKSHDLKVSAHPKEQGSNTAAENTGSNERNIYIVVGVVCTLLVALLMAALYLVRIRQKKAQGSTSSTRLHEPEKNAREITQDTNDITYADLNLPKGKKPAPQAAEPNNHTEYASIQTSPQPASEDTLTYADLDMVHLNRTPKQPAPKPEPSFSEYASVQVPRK

B1: QP256253 (humanized anti-SIRPα antibody, QP163164 humanized clone) (antibody, human IgG4, V domains shown)
VH: QVQLVQSGAEVKKPGASVKVSCKASGYTFTNYWINWVRQAPGQGLEWIAMIDPSDSETHYNQIFKDRATLTTDTSTSTAYMELRSLRSDDTAVYYCAMDYGSLYAMDYWGRGTLVTVSS
VL: DIVLTQSPDSLAVSLGERATINCRASKSVSSSGYNYIFWYQQKPGQPPKLLIYLASNLDSGVPDRFSGSGSGTDFTLTISSLQAEDVAVYYCQHSRELPTFGQGTKLEIK
B2: QP256279 (affinity-matured humanized anti-SIRPα antibody) (antibody, IgG4, V domains shown)
VH: B1 VH
VL: B1 VL with K27Q, S30R, Y36W, L58R
B3: QP2561586 (affinity-matured humanized anti-SIRPα antibody) (antibody, IgG4, V domains shown)
VH: B1 VH
VL: B1 VL with H94E
B4: QP2561589 (affinity-matured humanized anti-SIRPα antibody) (antibody, IgG4, V domains shown)
VH: B1 VH
VL: B1 VL with H94E, R96W

target: human SIRPα naturally expressed on human renal clear cell adenocarcinoma 786-O cells (human) (UniProt P78324); experiment: FACS on 786-O cells, PE-anti human FC

| Binder | binding |
| --- | --- |
| B1 | binds |
| B2 | binds |
| B3 | binds |
| B4 | binds |
